Assay results: paper doi:10.1101/560391 (bioRxiv, 2019)
Where two headings read alike, the source gives them in different places. Results are given in words; binding and its absence hold for the method and conditions named. Some entries that bind do so weakly or less than the wild type. For part of these data: Tags and fused reporters may be left off the sequences shown.

Assays:
[1] = target: dCENP-A-GFP-LacI (Drosophila) (UniProt Q9V6Q2); test: LacI/LacO tethering and co-recruitment in cells
[2] = target: dH3^L1α2 chimera, GFP-LacI fusion (Drosophila) (UniProt P02299+Q9V6Q2); test: LacI/LacO tethering and co-recruitment in cells
[3] = target: dH3^L1α2+C chimera, GFP-LacI fusion (Drosophila) (UniProt P02299+Q9V6Q2); test: LacI/LacO tethering and co-recruitment in cells
[4] = target: T1, GFP-LacI-dCENP-C (Drosophila) (UniProt Q9VHP9); test: LacI/LacO tethering and co-recruitment in cells
T1 sequence: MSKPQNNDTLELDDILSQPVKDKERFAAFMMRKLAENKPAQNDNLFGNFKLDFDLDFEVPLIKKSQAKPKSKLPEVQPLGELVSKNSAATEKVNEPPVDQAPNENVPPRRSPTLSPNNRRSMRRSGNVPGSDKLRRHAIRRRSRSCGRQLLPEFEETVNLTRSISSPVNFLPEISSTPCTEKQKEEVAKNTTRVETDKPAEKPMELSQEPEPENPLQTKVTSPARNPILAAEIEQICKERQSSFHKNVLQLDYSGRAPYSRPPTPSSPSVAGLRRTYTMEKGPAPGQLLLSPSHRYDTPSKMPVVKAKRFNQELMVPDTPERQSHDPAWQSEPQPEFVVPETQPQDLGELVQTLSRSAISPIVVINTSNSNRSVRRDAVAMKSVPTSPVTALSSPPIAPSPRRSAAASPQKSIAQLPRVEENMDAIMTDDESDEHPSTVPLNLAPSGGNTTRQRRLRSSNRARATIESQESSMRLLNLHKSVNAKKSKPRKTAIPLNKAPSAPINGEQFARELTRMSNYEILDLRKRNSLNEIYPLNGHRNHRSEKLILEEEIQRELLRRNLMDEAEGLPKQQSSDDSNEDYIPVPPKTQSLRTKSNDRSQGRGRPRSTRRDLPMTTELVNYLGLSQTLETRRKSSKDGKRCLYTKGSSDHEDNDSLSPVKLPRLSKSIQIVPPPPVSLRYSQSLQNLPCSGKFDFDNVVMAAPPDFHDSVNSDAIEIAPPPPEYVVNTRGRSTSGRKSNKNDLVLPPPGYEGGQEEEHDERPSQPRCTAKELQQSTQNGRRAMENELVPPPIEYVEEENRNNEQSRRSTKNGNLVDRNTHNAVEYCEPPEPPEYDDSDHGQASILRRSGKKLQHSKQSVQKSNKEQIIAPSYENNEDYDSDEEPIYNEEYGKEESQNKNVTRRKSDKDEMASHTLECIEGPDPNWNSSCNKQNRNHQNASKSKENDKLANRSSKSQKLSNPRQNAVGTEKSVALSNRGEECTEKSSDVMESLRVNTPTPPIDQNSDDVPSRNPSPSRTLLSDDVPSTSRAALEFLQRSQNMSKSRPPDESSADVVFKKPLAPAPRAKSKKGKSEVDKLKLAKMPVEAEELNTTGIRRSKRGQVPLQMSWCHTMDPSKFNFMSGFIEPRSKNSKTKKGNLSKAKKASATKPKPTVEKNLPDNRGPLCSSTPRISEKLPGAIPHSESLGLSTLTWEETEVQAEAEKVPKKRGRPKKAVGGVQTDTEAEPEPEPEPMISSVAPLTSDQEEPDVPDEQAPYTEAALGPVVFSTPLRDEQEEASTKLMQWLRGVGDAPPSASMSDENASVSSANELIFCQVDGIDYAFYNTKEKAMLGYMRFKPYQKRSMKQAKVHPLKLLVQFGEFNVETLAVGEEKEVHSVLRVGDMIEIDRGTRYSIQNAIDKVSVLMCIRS

[5] = target: CAL1(1-407)-GFP-LacIw (Drosophila) (UniProt Q9VEN2); test: LacI/LacO tethering and co-recruitment in cells
[6] = target: CAL1(1-160)-GFP-LacIw (Drosophila) (UniProt Q9VEN2); test: LacI/LacO tethering and co-recruitment in cells
[7] = target: GFP-LacI-CAL1 (Drosophila) (UniProt Q9VEN2); test: LacI/LacO tethering and co-recruitment in cells
[8] = target: dCENP-A-GFP-LacI (Drosophila) (UniProt Q9V6Q2); test: LacI/LacO tethering and co-recruitment in cells; remark: listed apart in the source
[9] = target: CAL1-GFP-LacI (Drosophila) (UniProt Q9VEN2); test: LacI/LacO tethering and co-recruitment in cells
[10] = target: T2, GFP-LacI-dCENP-C (Drosophila), Q9VHP9; test: LacI/LacO tethering and co-recruitment in cells; conditions: remark: other sources report otherwise
T2 chain: T1 sequence

[11] = target: T3, dCENP-A (Drosophila), Q9V6Q2; test: LacI/LacO tethering and co-recruitment in cells; conditions: remark: other sources report otherwise
T3 chain: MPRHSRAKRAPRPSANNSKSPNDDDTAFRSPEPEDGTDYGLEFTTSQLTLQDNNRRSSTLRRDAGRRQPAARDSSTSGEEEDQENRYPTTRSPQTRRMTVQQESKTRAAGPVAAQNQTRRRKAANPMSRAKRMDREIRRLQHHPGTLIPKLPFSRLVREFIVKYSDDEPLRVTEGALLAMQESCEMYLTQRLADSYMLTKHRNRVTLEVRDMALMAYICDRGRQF

[12] = target: T4, recombinant CAL1(1-160) (Drosophila), Q9VEN2; test: SEC-MALS; conditions: remark: other sources report otherwise
T4 chain: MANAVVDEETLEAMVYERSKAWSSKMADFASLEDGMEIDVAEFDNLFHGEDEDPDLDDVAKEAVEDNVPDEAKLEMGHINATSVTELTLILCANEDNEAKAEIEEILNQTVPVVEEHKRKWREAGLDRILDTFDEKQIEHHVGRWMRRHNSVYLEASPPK

CAL1-V5 (from UniProt Q9VEN2 1-979)
binding [1]: binds | binding [2]: binds weakly | binding [3]: binds | binding [4]: binds

dCENP-A (from UniProt Q9V6Q2 1-225)
binding [5]: binds | binding [6]: binds

B1: HA-dCENP-C (protein, UniProt Q9VHP9 1-1411)
chain: T1 sequence
binding [7]: binds weakly | binding [8]: binds weakly | binding [9]: binds weakly

B2: HA-dCENP-C, Q9VHP9 1-1411 (protein)
chain: T1 sequence
binding [10]: binds | binding [11]: binds

B3: recombinant CAL1(1-160), Q9VEN2 1-160 (domain or fragment)
chain: T4 chain
binding [12]: no binding
